# Test results published in patent publication US20240336653A1 (Shenzhen Turier Biotech Co., Ltd., priority 2020, published 2024).
# How the values were obtained:
# [1] = general procedure: Fmoc solid-phase peptide synthesis; Rink Amide MBHA; 1-hydroxybenzotriazole / N,N-diisopropyl carbodiimide; 1-hydroxybenzotriazole /; conditions: whole synthesis, scale 0.72 mmol
# [2] = general procedure: Fmoc solid-phase peptide synthesis; Rink Amide MBHA (loading 0.36 mmol/g); 1-hydroxybenzotriazole / N,N-diisopropyl carbodiimide; 1-hydroxybenzotriazole /; conditions: whole synthesis, scale of the general procedure 0.72 mmol
substance,measurement,setting,value
(PEG2-PEG2-γGlu-CO(CH2)18CO2H)-Val-Iva-Gly-Ser-Pro-Ser-Ala-Gln-Glu-Glu-Ala-Ser-Pro-Ala-NH2,crude mass,[1],1.2 g
same,final HPLC purity,[2],98.83%
